The record followed here is patent publication US20190194322A1.

Sequences of proteins named here, by UniProt entry; tags and fusion partners are left off. A change or cut given only in a name is not applied to a line headed by its entry.
UniProt Q9H7M9: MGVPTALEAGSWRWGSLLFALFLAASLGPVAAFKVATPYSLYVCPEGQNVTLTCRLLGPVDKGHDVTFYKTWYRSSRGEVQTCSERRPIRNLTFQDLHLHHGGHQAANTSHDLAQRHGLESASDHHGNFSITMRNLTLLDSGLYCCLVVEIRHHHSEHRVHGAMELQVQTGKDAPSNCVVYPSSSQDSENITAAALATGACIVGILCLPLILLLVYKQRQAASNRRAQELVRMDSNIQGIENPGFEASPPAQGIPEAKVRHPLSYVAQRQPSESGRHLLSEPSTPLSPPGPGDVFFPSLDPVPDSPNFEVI

Experiment [1] has as its target Recombinant human VSIG3 Fc Chimera (human (homo sapiens)). Briefly: AVEXIS (FIG. 12B legend).
The target is the same in experiment [2]. Briefly: AVEXIS, VSIG3 Fc-fusion bait on protein A plate, VISTA-COMP-AP prey, A650 with BluePhos (FIG. 12B).

No constants are given. Whether binding was seen depends on the method and setting. Some binding calls cover weakened binding; strength is not graded here.

On to “VISTA ectodomain coupled to pentamerizing rat COMP helix and alkaline phosphatase (AVEXIS prey) (from UniProt Q9H7M9 33-194; P35444 28-72)”, for which the binding result in experiment [1] and in experiment [2] was “binds” in each case.
